Our source for the binding signal values is PMC7819943, “Rice protein-binding microarrays: a tool to detect cis-acting elements near promoter regions in rice”.

This is one part of the list.

This assay deals with T1, OsSMF1 (Oryza sativa, UniProt Q6ZLB0 1-436).
T1 sequence: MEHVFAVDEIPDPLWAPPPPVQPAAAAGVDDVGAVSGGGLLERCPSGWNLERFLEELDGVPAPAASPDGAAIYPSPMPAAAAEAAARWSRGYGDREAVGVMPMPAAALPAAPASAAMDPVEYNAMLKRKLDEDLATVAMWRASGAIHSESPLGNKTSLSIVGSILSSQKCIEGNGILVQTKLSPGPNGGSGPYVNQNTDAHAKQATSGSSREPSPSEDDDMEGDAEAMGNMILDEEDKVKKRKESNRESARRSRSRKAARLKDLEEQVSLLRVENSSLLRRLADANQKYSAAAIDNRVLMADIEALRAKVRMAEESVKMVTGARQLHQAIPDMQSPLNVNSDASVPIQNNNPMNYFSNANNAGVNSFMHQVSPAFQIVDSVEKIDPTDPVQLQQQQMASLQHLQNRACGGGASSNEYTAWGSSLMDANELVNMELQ
The experiment in a line: protein-binding microarray (RPBM); PBS, 2% BSA, 51.3 ng/ul salmon testes DNA, 50 uM zinc acetate, 200 nM TF, 25 C, 1 h; high values mean tight binding. The settings on record: protein: recombinant; tags: N-terminal polyhistidine and DsRed monomer fusion (pET32a); chain copies: 2; label: CyDye5-dUTP incorporated in the synthesized complementary strand; 3' TTTTT single-stranded linker to array surface; dsDNA, one strand shown. Summed up: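 The binding signal for each feature is its fluorescence intensity in arbitrary units. An Axon 4000B scanner was used to read a custom Agilent array that had been made double-stranded with Cy5-dUTP primer extension, blocked with 2% BSA, incubated at 25 °C for 1 h with 200 nM protein in PBS, 2% BSA, salmon testes DNA and 50 µM zinc acetate, and washed. The protein was an N-terminal polyhistidine–DsRed transcription factor fusion from E. coli BL21-CodonPlus, purified on Ni–NTA.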
In the case of “CGCCACTGCCTATTCTATCTATATCGTGTGCACTTGAGGTCGGAGTCACCTAGTGCAG”, the binding signal is 3370 fluorescence intensity (a.u.). In the case of “ATCGAGAAACGACGTCAGAGTTTCGTCCACGTCACCATGACGGAGTCACCTAGTGCAG” it was 15000 fluorescence intensity (a.u.). In the case of “TGCCCGGCTGCCCTGCCCCATCCTCGTCAAGCCCTCCTCCCGGAGTCACCTAGTGCAG” it was 3860 fluorescence intensity (a.u.); in that of “CGCCCTTAATGTTGCAAATATACACGCTCACGCACGAAGTCGGAGTCACCTAGTGCAG”, 3730 fluorescence intensity (a.u.). As for “TCTCATGAACTTGGGCCGAGCTTGTGACATGTCCCGTCTTCGGAGTCACCTAGTGCAG”, the figure is 3670 fluorescence intensity (a.u.); as for “TGGGGCCCACATCCCGCACCACTCGGATTCGGATTTCCTCCGGAGTCACCTAGTGCAG”, 52200 fluorescence intensity (a.u.); as for “CATACCTTCCGTATTAGTAGAAGGTACTAAAATTGACATTCGGAGTCACCTAGTGCAG”, 13600 fluorescence intensity (a.u.). For “CGGCCGCCCTCCGTCACGTTCCGCTGCCTCCGCCCCAGAACGGAGTCACCTAGTGCAG”, the binding signal is 4380 fluorescence intensity (a.u.). “AAGATGGGAGAACGGAGGAAGAAGATGGAACTAAAATGTGCGGAGTCACCTAGTGCAG”: the binding signal was 3260 fluorescence intensity (a.u.).

Consider “ATCTCATCTCATCGACCACACCTGCATCATCAATCTGCCTCGGAGTCACCTAGTGCAG”, for which the binding signal was 3430 fluorescence intensity (a.u.). On to “TTTCTCTCCTACGTACACGCACGCGCGGTAACGAGTTAACCGGAGTCACCTAGTGCAG”, for which the binding signal is 3930 fluorescence intensity (a.u.). In the case of “CACGCTGACTTAACCGCACGTTAGCCAAAACTGTTCTCAGCGGAGTCACCTAGTGCAG” it was 3890 fluorescence intensity (a.u.). For “CCCCGCACGCTGCACGCATTCGCAGCGAGCGACGCAGCCACGGAGTCACCTAGTGCAG”, the binding signal is 3140 fluorescence intensity (a.u.). For “CCCAGATACACCGTTTTCCCTTCCGCGTCACTCCCAGGGCCGGAGTCACCTAGTGCAG”, the binding signal was 7160 fluorescence intensity (a.u.). In the case of “GTAGTAGTACAGCGCACAGGCCACGCGTGCGCGTCCACCGCGGAGTCACCTAGTGCAG” it was 4860 fluorescence intensity (a.u.); in that of “CGCATGTACACCTGTTCACATAATGACACGATCAAAATCTCGGAGTCACCTAGTGCAG”, 4080 fluorescence intensity (a.u.); in that of “ATGAAAGGGAATGTGTGGTGGAGGAGGTGGCTGAGAGATTCGGAGTCACCTAGTGCAG”, 3340 fluorescence intensity (a.u.). As for “ATTAGATTTTCCACAGACACCACAAGCCAATTATACTTAACGGAGTCACCTAGTGCAG”, the figure is 29500 fluorescence intensity (a.u.).

Consider “GTACTAGTACTATACGTGGATCGAGATGGATAATTAGATTCGGAGTCACCTAGTGCAG”, for which the binding signal is 3560 fluorescence intensity (a.u.). In the case of “GTTATTAGTCTACGTTTAATACTTCAAATGTGTGTCCTTACGGAGTCACCTAGTGCAG” it was 3140 fluorescence intensity (a.u.). As for “CGGGGATCCGCTCCGCCGTCTCGCCTCCCGCCCCGTGGATCGGAGTCACCTAGTGCAG”, the figure is 3300 fluorescence intensity (a.u.); as for “ACAATTGCTAATTCCACAAGTTTTGCCACATTGGCCTGCTCGGAGTCACCTAGTGCAG”, 3370 fluorescence intensity (a.u.). In the case of “AATTACTACCATGTTGTAAATGCTGGGAATCAATCAACGGCGGAGTCACCTAGTGCAG” it was 26600 fluorescence intensity (a.u.); in that of “CAGCAAGTAAACGGTCAAGATTCAAGCCGAAGAAGGGAGCCGGAGTCACCTAGTGCAG”, 3400 fluorescence intensity (a.u.). Consider “TCGAGGTCCCCACCATCATCCACGTCGGCATCCGCAGCTTCGGAGTCACCTAGTGCAG”, for which the binding signal is 19900 fluorescence intensity (a.u.). As to “CAGGGCAGGGGCGGAGCTAGAATAAAATGAAGAGGGTTTCCGGAGTCACCTAGTGCAG”, the binding signal was 3310 fluorescence intensity (a.u.).

Take “GTGTGGCGAACAACATTGTCACGTCATTAGTAATTCATGTCGGAGTCACCTAGTGCAG”: the binding signal is 4720 fluorescence intensity (a.u.). As for “ACATTTCTGTTATCCCGGTGGCTTTCTATCAATTTCGGCCCGGAGTCACCTAGTGCAG”, the figure is 3670 fluorescence intensity (a.u.).

“ATAATATAACAACACACCTCACCCAAACCCATTCATCCATCGGAGTCACCTAGTGCAG”: the binding signal is 3160 fluorescence intensity (a.u.).

As to “CCACACACGCACCCCTACACGCATGCTAGACCTATCAACTCGGAGTCACCTAGTGCAG”, the binding signal is 3680 fluorescence intensity (a.u.). In the case of “ATAACATCATTGTGGGATCCACCCTTATATGTTTGGTGATCGGAGTCACCTAGTGCAG” it was 13800 fluorescence intensity (a.u.); in that of “ACTAACAACGGCCGCAGCCCGCAGGCAGGTTGATCGATGACGGAGTCACCTAGTGCAG”, 4600 fluorescence intensity (a.u.); in that of “GATGGGCGGTGATCCACGTACGGCAGCGTCGGCCCCGCGGCGGAGTCACCTAGTGCAG”, 6440 fluorescence intensity (a.u.). As for “CAAACTTCTAACCTTTTCATCACATCAAAACTTTTCTATACGGAGTCACCTAGTGCAG”, the figure is 63600 fluorescence intensity (a.u.). In the case of “GAGTACTACGAGAAGCAGTCGCGCCACATCCTCGACACCACGGAGTCACCTAGTGCAG” it was 4330 fluorescence intensity (a.u.); in that of “CCTTTTCCGGCTCCCCGACGAGTCACGTACACGTCAGTCTCGGAGTCACCTAGTGCAG”, 17200 fluorescence intensity (a.u.).

For the sequence “GAATTTCCCGTCGCCCGTCAGCTTCCATCTGATCTCGTCACGGAGTCACCTAGTGCAG”, the binding signal was 11200 fluorescence intensity (a.u.).

For the sequence “GCCTCTTAAGTTTGATGAAGATGATGTGGAAGAAATTGGACGGAGTCACCTAGTGCAG”, the binding signal is 6630 fluorescence intensity (a.u.).

Turning to “GCCTTTCCGCCACCTCGGTACGTGTTCGACATGTTACGCACGGAGTCACCTAGTGCAG”, the binding signal is 3380 fluorescence intensity (a.u.). With “AAAATATGACGCTACACTTTTCACTTGATTTCAATCACTTCGGAGTCACCTAGTGCAG”, the binding signal is 3810 fluorescence intensity (a.u.). As for “CACTGGTCATGGAGCTGAGGGCGTCACACTGCGATTTGCGCGGAGTCACCTAGTGCAG”, the figure is 4020 fluorescence intensity (a.u.); as for “ATCCTGACTCCCTGAGTATGACAACGTTTGTTAAACTGTGCGGAGTCACCTAGTGCAG”, 3760 fluorescence intensity (a.u.). As for “CATAAATGAGATCCAGTGACGGCATGAGCATGTCCCAATTCGGAGTCACCTAGTGCAG”, the figure is 24900 fluorescence intensity (a.u.); as for “CAAACTCGTCAGCAATTCAGGCTGATATGATCTCATTTCACGGAGTCACCTAGTGCAG”, 4110 fluorescence intensity (a.u.). In the case of “GCAGTGGTGCGTGTGAGTTGTGACTCTCCACTTCCGTGTACGGAGTCACCTAGTGCAG” it was 5660 fluorescence intensity (a.u.); in that of “CTCATTCTCCCTTTCTTCCATTTTAGATTTTAATTTCTTCCGGAGTCACCTAGTGCAG”, 25900 fluorescence intensity (a.u.). On to “CCGACGCGCGCACCCGCTGCTTCGTCATCCAGGGCTCCGACGGAGTCACCTAGTGCAG”, for which the binding signal was 3730 fluorescence intensity (a.u.).

Regarding “CCAGGGGCTGGGCGGGCACCGGACAAGCCACACGCGGCTGCGGAGTCACCTAGTGCAG”, the binding signal was 3310 fluorescence intensity (a.u.). In the case of “TCAATGTTGTAAATTAGACACCTGCAAGATACTCCCTCTGCGGAGTCACCTAGTGCAG” it was 23600 fluorescence intensity (a.u.); in that of “GAATGCTTTTGTTGTGGTCGGTCACCTTCGATCGGATGCACGGAGTCACCTAGTGCAG”, 3510 fluorescence intensity (a.u.).

In the case of “CTCGACTATGCCACGTCAGCGATTCGGTACAGTACTACAGCGGAGTCACCTAGTGCAG”, the binding signal is 14100 fluorescence intensity (a.u.). In the case of “ATATCAATCCAACGCATAGCAGTAGTCGACCGAGTAGACACGGAGTCACCTAGTGCAG” it was 3740 fluorescence intensity (a.u.); in that of “CGCCTGCGATTGGCGGCGCGGTAGGAGGGGTGGTGCCGCCCGGAGTCACCTAGTGCAG”, 35600 fluorescence intensity (a.u.); in that of “CATGGTGCTCACGTGACATGCTACATGGGTGTTGACTCATCGGAGTCACCTAGTGCAG”, 5280 fluorescence intensity (a.u.).
